Drawing on paper PMC5438423, this text covers binding for one molecule.

No constants are given. Whether binding was seen depends on the method and setting. In cells and extracts the contact can be indirect. Some entries that bind do so weakly or less than the wild type.

The target in the assay is T1, alpha4 protein (mouse (endogenous in LV tissue)) (UniProt Q61249).
T1 sequence: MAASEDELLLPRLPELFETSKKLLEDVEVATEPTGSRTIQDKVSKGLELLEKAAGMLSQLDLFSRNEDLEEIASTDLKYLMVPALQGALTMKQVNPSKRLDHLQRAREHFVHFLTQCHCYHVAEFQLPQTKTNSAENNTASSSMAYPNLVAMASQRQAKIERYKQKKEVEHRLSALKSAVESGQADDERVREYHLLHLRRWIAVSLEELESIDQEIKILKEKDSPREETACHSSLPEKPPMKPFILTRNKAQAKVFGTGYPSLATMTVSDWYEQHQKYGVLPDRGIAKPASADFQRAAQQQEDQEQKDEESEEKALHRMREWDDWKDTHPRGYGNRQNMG
Put plainly: co-IP; alpha4 immunoprecipitated from Triton-soluble mouse LV tissue lysate (SHAM or TAC, 4 weeks pressure overload) with rabbit polyclonal anti-alpha4 antibody overnight at 4 °C and protein A paramagnetic beads; lysis buffer 150 mM NaCl, 20 mM Tris-HCl, 1% Triton X-100, pH 7.5; controls rabbit IgG and PBS; blots for PP2AC and PP6C in immunocomplexes and in pre-IP and post-IP lysates.

B1: PP6C, protein phosphatase 6 catalytic subunit (enzyme, UniProt Q9CQR6 1-305)
chain: MAPLDLDKYVEIARQCKYLPENDLKRLCDYVCDLLLEESNVQPVSTPVTVCGDIHGQFYDLCELFRTGGQVPDTNYIFMGDFVDRGYYSLETFTYLLALKAKWPDRITLLRGNHESRQITQVYGFYDECQTKYGNANAWRYCTKVFDMLTVAALIDEQILCVHGGLSPDIKTLDQIRTIERNQEIPHKGAFCDLVWSDPEDVDTWAISPRGAGWLFGAKVTNEFVHINNLKLICRAHQLVHEGYKFMFDEKLVTVWSAPNYCYRCGNIASIMVFKDVNTREPKLFRAVPDSERVIPPRTTTPYFL
Take B1: the binding result is on record as “binds”.
